Results are given in words; binding and its absence hold for the method and conditions named. Binding seen in cells or lysates may run through a third protein. Binding can be weak; no strength is given.
Target: T1, HsRsg1 (human Rsg1) (human) (UniProt Q9BU20)
T1 sequence: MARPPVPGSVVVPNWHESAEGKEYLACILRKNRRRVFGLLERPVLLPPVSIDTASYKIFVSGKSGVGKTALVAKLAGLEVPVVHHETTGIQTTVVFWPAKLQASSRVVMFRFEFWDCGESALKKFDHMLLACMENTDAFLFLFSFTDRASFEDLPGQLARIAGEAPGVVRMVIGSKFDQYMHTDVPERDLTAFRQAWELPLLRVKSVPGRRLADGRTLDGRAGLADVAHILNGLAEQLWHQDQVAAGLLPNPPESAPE
Assay: co-purification of co-expressed proteins; CiBAR1 (His6-SUMO) and Rsg1 (GST) coexpressed in E. coli; held on glutathione agarose by Rsg1, His-Sumo cleaved off CiBAR1, washed, eluted with PreScission; Coomassie-stained SDS-PAGE; both purified

Amino acid sequences for entries named in this document (tags omitted). A change or cut given only in a name is not applied to a line headed by its entry.
UniProt A1XBS5: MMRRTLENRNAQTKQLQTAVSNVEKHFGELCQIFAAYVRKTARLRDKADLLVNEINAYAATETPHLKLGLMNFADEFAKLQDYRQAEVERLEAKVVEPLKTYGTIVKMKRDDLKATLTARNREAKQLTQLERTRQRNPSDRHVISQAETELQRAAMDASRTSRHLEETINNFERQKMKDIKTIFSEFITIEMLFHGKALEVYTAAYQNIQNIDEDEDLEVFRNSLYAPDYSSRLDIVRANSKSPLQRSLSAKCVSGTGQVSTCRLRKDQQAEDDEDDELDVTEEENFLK

HsCiBAR1 (human CiBAR1/FAM92A1) (from UniProt A1XBS5)
binding: binds

From publication PMC12383261, “Mechanistic adaptation of the metazoan RabGEFs Mon1-Ccz1 and Fuzzy-Inturned” (Science Advances, 2025)
